According to patent publication US12122842 (R AND D SYSTEMS, dated 2024):
These are yes or no findings as the source states them, for the method shown. Some results given as binding are weak or reduced against the parent protein; the word gives no strength.

Columns and labels:
[1] = molecular target: T1, recombinant human CD30 protein (UniProt P28908 19-385); assay: SPR, antibody immobilized, hCD30 as analyte
T1 chain: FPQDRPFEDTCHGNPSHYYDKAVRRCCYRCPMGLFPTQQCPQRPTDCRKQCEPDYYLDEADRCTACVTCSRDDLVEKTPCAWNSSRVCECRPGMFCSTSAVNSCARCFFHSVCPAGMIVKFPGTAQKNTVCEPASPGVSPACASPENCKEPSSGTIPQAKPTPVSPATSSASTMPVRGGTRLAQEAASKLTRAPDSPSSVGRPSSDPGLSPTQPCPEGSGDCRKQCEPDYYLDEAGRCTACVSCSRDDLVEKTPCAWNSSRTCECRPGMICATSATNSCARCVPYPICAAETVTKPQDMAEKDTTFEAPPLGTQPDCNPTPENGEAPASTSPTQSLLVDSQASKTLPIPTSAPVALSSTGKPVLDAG

[2] = molecular target: T1, recombinant human CD30 protein; assay: SPR, antibody immobilized, hCD30 as analyte, 1:1 Langmuir fit

- binding [1]: binds
- binding [2]: binds
B1: Mouse Anti-Human CD30 Monoclonal Antibody (Clone 81316.11) (antibody, V domains shown)
VH: QVQLKESGPGLVAPSQSLSITCTVSGFSLTSYGVHWVRQPPGKGLEWLGVIWAGETINYNLALMSRLSISKDNSKSQVFLKMNSLQTEDTAMYYCARDQGEYGNYGWYFDVWGAGTTVTVSS
VL: DIQMTQTTSSLSASLGDRVTISCSASQGISNYLNWYQQKPDGTVKLLIYYTSSLHSGVPSRFSGSGSGTDYSLTISNLEPEDIATYYCQHYSKLPPTFGGGTKLEIKR
notes: It is a mouse monoclonal, and the isotype control used beside it is MsIgG1; also called anti-hCD30 antibody; recombinant hCD30 antibody
